From paper PMC10602884, “Distinct RPA functions promote eukaryotic DNA replication initiation and elongation”
Construct, isoform or probe ends are uncertain for at least one entry. A weaker result is weaker than the reference pair of the same experiment.

Test system: Pol-alpha/primase
Experiment: fluorescence anisotropy
Details: 30 mM HEPES pH 7.5, 30 mM NaCl, 0.25 mM EDTA, 10% glycerol, 0.01% NP-40, 1 mM DTT, plus 0.5 M NaCl for dT30 (no supplemental NaCl for dT60), 2.5 nM DNA, room temperature, recombinant protein, label: 6-FAM, single-stranded DNA

TTTTTTTTTTTTTTTTTTTTTTTTTTTTTTTTTTTTTTTTTTTTTTTTTTTTTTTTTTTT [6-FAM-oligo-dT60]
binding result (DNA pre-bound with equimolar (2.5 nM) RPA-deltaWH (P9), no significant difference from WT RPA): binds more weakly
binding result (DNA pre-bound with equimolar (2.5 nM) WT RPA (P1), lower maximum than naked DNA): binds more weakly
